Paper PMC10408074
These are yes or no findings as the source states them, for the method shown. Binding seen in cells or lysates may run through a third protein. Some entries that bind do so weakly or less than the wild type.

Protein sequences, listed by entry. Tags and fused reporters are not part of them.
UniProt Q13485: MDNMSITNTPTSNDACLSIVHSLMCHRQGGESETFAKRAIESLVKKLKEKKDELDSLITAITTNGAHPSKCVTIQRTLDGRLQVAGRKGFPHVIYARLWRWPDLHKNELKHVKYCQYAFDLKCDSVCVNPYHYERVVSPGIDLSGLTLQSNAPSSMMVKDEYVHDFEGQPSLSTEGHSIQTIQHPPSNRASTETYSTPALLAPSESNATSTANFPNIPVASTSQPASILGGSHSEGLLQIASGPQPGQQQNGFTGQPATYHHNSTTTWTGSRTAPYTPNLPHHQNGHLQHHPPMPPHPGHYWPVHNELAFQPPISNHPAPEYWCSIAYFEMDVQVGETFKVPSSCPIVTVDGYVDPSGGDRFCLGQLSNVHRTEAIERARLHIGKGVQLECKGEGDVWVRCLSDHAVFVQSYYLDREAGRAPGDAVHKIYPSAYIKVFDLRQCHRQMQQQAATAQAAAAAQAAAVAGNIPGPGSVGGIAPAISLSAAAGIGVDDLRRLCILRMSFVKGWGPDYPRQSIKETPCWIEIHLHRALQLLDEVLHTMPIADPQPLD
UniProt P23769: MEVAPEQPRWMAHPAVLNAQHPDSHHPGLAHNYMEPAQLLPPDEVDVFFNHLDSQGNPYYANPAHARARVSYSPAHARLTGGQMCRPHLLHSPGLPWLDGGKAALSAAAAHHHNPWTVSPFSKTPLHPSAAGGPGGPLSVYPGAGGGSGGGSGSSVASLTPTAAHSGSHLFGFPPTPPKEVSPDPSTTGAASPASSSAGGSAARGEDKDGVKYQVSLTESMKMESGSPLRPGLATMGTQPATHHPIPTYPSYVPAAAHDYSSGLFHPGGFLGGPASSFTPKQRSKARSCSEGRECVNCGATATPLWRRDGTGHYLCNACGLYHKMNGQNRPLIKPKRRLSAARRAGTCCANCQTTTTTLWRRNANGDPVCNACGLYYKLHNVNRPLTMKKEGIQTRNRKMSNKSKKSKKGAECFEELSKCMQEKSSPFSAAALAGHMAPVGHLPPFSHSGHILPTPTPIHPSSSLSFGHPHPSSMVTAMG

Columns and labels:
[1] = biological target: V5-SMAD4 (Sma Mothers Against Decapentaplegia homologue 4), expressed in 293T cells (human (cDNA of HEK293T cells)) (UniProt Q13485); test: co-IP; 293T cells co-transfected with pLVET-Flag-GATA2 and pLVET-V5-SMAD4, 48 h; nondenaturing lysis buffer (50 mM Tris-HCl pH 8.0, 150 mM NaCl, 1 mM EDTA, 10% glycerol); anti-Flag or anti-V5 antibody at 4 °C overnight, protein G agarose beads, western blot
[2] = biological target: GST-SMAD4 (UniProt Q13485); test: pull-down; GST-SMAD4 from BL21 immobilised on glutathione agarose resin (4 °C, 2 h) and washed; 1F5 lysate with Flag-GATA2 added with or without 250 units/ml Benzonase, 4 °C, 14 h; eluted with glutathione, western blot; only the target purified
[3] = biological target: Flag-GATA2 (endothelial transcription factor GATA-2), expressed in 293T cells (human (cDNA of HEK293T cells)) (UniProt P23769); test: co-IP; 293T cells co-transfected with pLVET-Flag-GATA2 and pLVET-V5-SMAD4, 48 h; nondenaturing lysis buffer (50 mM Tris-HCl pH 8.0, 150 mM NaCl, 1 mM EDTA, 10% glycerol); anti-Flag or anti-V5 antibody at 4 °C overnight, protein G agarose beads, western blot
[4] = biological target: endogenous GATA2 of LNCaP cells (human (endogenous in LNCaP)) (UniProt P23769); test: co-IP; endogenous proteins, LNCaP cell lysate in nondenaturing lysis buffer; protein G agarose beads, western blot

For “Flag-GATA2 (endothelial transcription factor GATA-2), expressed in 293T cells (from UniProt P23769 1-480)”, the binding [1] was “binds”.

“Flag-GATA2 from 1F5 cells stably overexpressing flag-GATA2 (from UniProt P23769 1-480)” was tested, and the binding [2] was “binds”.

In the case of “V5-SMAD4 (Sma Mothers Against Decapentaplegia homologue 4), expressed in 293T cells (from UniProt Q13485 1-552)”, the binding [3] is reported as “binds”.

“endogenous SMAD4 of LNCaP cells (from UniProt Q13485 1-552)” was tested, and the binding [4] was “binds”.
